# Whole data set: some 33,000 sequences, median “E-score (-0.5 to 0.5)” near -0.0034, cut for the highest 2% near 0.25. This is one part of the list.
# Target: T1, Yap3 (UniProt P38749)
# T1 sequence: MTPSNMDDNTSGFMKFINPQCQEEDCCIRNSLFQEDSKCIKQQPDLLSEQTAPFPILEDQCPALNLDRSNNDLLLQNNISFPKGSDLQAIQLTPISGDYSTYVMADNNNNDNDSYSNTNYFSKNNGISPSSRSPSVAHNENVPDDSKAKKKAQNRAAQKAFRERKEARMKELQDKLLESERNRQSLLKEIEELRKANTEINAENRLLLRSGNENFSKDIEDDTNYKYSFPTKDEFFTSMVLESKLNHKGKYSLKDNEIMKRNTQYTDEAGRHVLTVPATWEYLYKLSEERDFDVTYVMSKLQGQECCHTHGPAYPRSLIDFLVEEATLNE
# Assay: PBM E-score (8-mer binding enrichment) (E-score (-0.5 to 0.5)); higher = stronger / more preferred TF binding
# Settings: protein concentration: 100 nM; construct: GST-full length
# Method in brief: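 Yeast transcription factors, full-length or as DNA-binding domains, were expressed with a GST tag using PURExpress in vitro transcription/translation. At about 100-200 nM they were applied to universal all-10-mer Agilent arrays, double-stranded by primer extension on fresh or once-stripped slides. Fluorescent anti-GST detected bound protein, and masliner normalised the scans. E-scores for ungapped eight-base words, pooled with reverse complements, came from the Universal PBM Analysis Suite.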
row,Sequence,PBM E-score
1,AATTTGGC,-0.0745
2,ACGAGCGC,-0.199
3,ATGTGATA,0.255
4,AATTACGT,0.308
5,GCCTAAGC,-0.152
6,ACTGGAAG,-0.11
7,GAACGCCC,-0.0783
8,AGACGGAC,-0.0788
9,GACCGTAA,-0.00788
10,AAGACGGG,-0.0765
11,TAGGACTA,0.00582
12,AAATCTTG,0.0608
13,CAGCAGTA,-0.0879
14,GCATTACC,-0.131
15,CAGCTCTC,-0.305
16,ATTGAGGG,-0.141
17,AGGGTTTA,0.0289
18,TCTTTAAA,0.0906
19,CAGGTTAG,-0.0433
20,CTTCGTTA,-0.0671
21,ATATCTAG,0.115
22,CCGCTCCC,-0.327

row,Sequence,PBM E-score
1,AGACTCAC,-0.162
2,ATAAGTAT,0.023
3,CGCGTAAG,0.158
4,CGACACCA,-0.0506
5,ATTCGCCG,0.14
6,CAGCGCCA,-0.196
7,CAATTATC,0.273
8,GTAGCGAA,0.0429
9,ACTTCTAG,-0.233
10,AAACATAG,-0.0382
11,ATTCCAAA,0.0683
12,CGCACTCA,0.0343
13,CGATAGAG,-0.035
14,TGACCACA,0.0871
15,GGCCGGCA,-0.0643
16,AGCCGTAG,-0.0413
17,ATTGGGGG,-0.132
18,GCCAGTAA,-0.206
19,ACATGTTC,0.0569
20,ACAATAGA,-0.00187
21,AAGTGCGG,-0.0626
22,CCATTGTC,0.0818

row,Sequence,PBM E-score
1,CCTATCGA,0.0765
2,CGGCCGCC,-0.161
3,AATTGTGC,0.117
4,ACTTTATG,0.124
5,CGTCTAGA,-0.191
6,GCGTACGA,-0.0219
7,TAATAGGA,0.15
8,CGTGCTCA,-0.0686
9,CCACGACG,-0.0372
10,GATGCCAA,-0.0809
11,CGTCAGGC,-0.0794
12,GAGGCCGA,-0.115
13,CTCCCACC,-0.213
14,ATAGGCAG,0.027
15,CGTACTTC,0.179
16,ACATATCG,0.0873
17,TACCCGAA,0.11
18,CGCACCTA,-0.246
19,ACAACAGA,-0.0683
20,GAGGTTCA,0.0805
21,AACCCCCA,-0.371
22,TGAGAAAA,0.1

row,Sequence,PBM E-score
1,GCACTGCC,-0.0495
2,CATTTCTC,0.126
3,ATGTGGTG,0.074
4,CGTTATAG,0.163
5,GCGGCTCA,0.0715
6,AAACCGAT,-0.0405
7,CAGCGGCC,-0.203
8,CGTGCTTC,0.187
9,CGTTAAAG,0.121
10,CCACGTAG,-0.183
11,AAACTATG,-0.0381
12,ACGTTAAA,0.212
13,CCCTGCGC,-0.131
14,ACTGATTA,0.196
15,TCGTGTCA,-0.0021
16,GAGACTGC,-0.232
17,AAGGGGCG,-0.27
18,AAGACCAA,0.0068
19,GCGCTTCA,0.0121
20,GCGCGTCC,-0.0559
21,CCTAGCCG,-0.0626
22,CTAAAAAC,-0.0937

row,Sequence,PBM E-score
1,AGCCCAGA,-0.0938
2,ATCACCCC,0.0232
3,AACTTATC,0.154
4,CTGTACAG,-0.159
5,AGGATCCT,-0.14
6,CTTTGGGA,-0.148
7,CCGACAGA,0.107
8,CGCCTCTA,0.142
9,CGAAGCTA,-0.0129
10,GCAACAAA,0.193
11,ACATTACG,0.286
12,ATGCTTGC,-0.171
13,CCCCACAA,-0.0402
14,ACGCCCCT,-0.275
15,GGCTAGAA,0.0581
16,ACGACCAC,0.0501
17,AGAGGCGC,-0.186
18,AGAGTGAA,-0.0448
19,GAGCTCAA,0.0384
20,CGGCTCTC,-0.193
21,ATCGGGGA,0.0249

# Look-ups from the entries so far:
# GCAACAAA | PBM E-score: 0.193
# CTTTGGGA | PBM E-score: -0.148
# CGGCTCTC | PBM E-score: -0.193
# AGAGGCGC | PBM E-score: -0.186
# CCGACAGA | PBM E-score: 0.107

# Reference: the supplement of paper PMC3334620
